# Experimental data: the supplement of paper PMC3334620
# Whole data set: some 33,000 sequences, median “E-score (-0.5 to 0.5)” near -8e-05, cut for the highest 2% near 0.23. The list shows a part of the results.
# Target: T1, Nrg2 (UniProt P38082)
# T1 sequence: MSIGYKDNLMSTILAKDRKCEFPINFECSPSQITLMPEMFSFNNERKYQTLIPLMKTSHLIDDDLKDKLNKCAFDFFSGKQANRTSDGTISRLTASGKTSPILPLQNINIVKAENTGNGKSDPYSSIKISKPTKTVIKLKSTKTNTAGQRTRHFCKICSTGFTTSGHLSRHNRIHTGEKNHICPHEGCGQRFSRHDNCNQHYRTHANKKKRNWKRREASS
# Experiment: PBM E-score (8-mer binding enrichment) (E-score (-0.5 to 0.5)); higher = stronger / more preferred TF binding
# Details: protein concentration: 100 nM; construct: GST-full length
# How it was run: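 Each ungapped eight-base word and its reverse complement, pooled, received an E-score from the Universal PBM Analysis Suite. Underlying scans, normalised with masliner, recorded fluorescent anti-GST bound to GST-tagged yeast transcription factors. These were applied at about 100-200 nM to universal all-10-mer Agilent arrays double-stranded by primer extension.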
row,Sequence,PBM E-score
1,GCGTCGTA,0.0775
2,CACAATGC,0.0273
3,AACCGCCC,0.00914
4,ATGAATCG,0.163
5,GAAAGCAC,0.116
6,GATTACGA,0.134
7,AGCGGGAC,-0.101
8,ACACTTAG,0.0337
9,GCAGTGGA,0.0909
10,GACTGCCC,-0.152
11,GATGGAGC,-0.166
12,AAGGCTAA,-0.0162
13,AGTTCTTC,-0.029
14,ATCTTTTG,0.00477
15,ACTACACG,0.0796
16,GCGCTTTA,0.213
17,CCTTTCGA,0.115
18,CGCTTCAA,-0.029
19,CACGGCTA,-0.174
20,ACTAGCTA,0.0559
21,AGGGCTAA,-0.0406
22,ACGAGAGC,0.0267

row,Sequence,PBM E-score
1,GCGAGATA,0.171
2,AACTATCG,0.0118
3,CTATGACC,-0.129
4,TCGGACCA,0.124
5,GACTAGGA,-0.0424
6,CGATCAAG,-0.0142
7,AGTTACTA,0.0184
8,GAGCAACA,-0.0268
9,CTGGCCTA,-0.0943
10,GCGATAAA,0.204
11,CGGCGAGC,0.116
12,ACTGGGAG,-0.109
13,AGAGCCCT,-0.0853
14,TGACGGAA,-0.00402
15,CCTGCAAG,-0.0363
16,CGAAGACA,-0.00934
17,AGGCACTG,-0.0512
18,CCACTGGC,0.0694
19,GCAAATTA,0.155
20,AACGCGCT,0.123
21,ATGGCCCG,-0.14
22,AAGGCTCA,-0.107

row,Sequence,PBM E-score
1,AAGTTGCC,0.00393
2,GCTGACAC,-0.0636
3,ACATCATG,0.0246
4,TACTCTAA,0.0771
5,CATTCGTA,-0.0996
6,AGGGGTCA,0.128
7,CAGGCGAA,0.0764
8,AGCGGGGG,-0.295
9,AATAGTAA,0.221
10,AGAAAACG,0.155
11,GGACTCCA,-0.235
12,CCCCATGA,0.154
13,CCATCAAG,-0.15
14,ACCATCCA,-0.158
15,CACGTATA,0.0382
16,ACGTCTAT,-0.136
17,CGTCCGGA,-0.123
18,CCTGGGCA,-0.261
19,ATTAAGCG,0.123
20,AGCTATGA,-0.0745
21,AAATCTGA,0.139
22,CATCGGAC,-0.00858

row,Sequence,PBM E-score
1,GCGGTGAA,0.0607
2,TAACCTCA,-0.0636
3,AGCGTTCA,-0.185
4,GGCAAACC,-0.196
5,CATACCTC,-0.0407
6,ACTCATCC,0.0985
7,AAACAGCC,-0.0282
8,ATGATTGG,0.00137
9,GCTACGAA,0.139
10,ACCTCTCT,-0.161
11,ATCAGGCA,0.00611
12,GCATGTAA,-0.0072
13,AGCCTGAC,-0.116
14,AAAGTGAT,0.0508
15,TAGATCAA,0.0306
16,CACATTAA,0.00494
17,CAATCTGG,0.0452
18,GATACCCA,0.0646
19,AACGCTCC,-0.146
20,GACCCACC,0.0431
21,ACTAAAGC,0.00801
22,GCACGATA,0.113

row,Sequence,PBM E-score
1,AAAGCGTA,-0.104
2,AATTTCGT,0.0935
3,AGATAAAA,0.145
4,AGGAACTC,0.00194
5,GACACATA,0.0156
6,AGTAACGA,0.00247
7,AACGCAGC,0.253
8,AAGGTAGT,0.0492
9,AAGCGACA,0.161
10,CGCTTGAG,-0.0135
11,CACTCACA,0.0997
12,AGGTCCAT,0.137
13,TCGCTAAA,-0.134
14,ACTGTTCA,-0.0219
15,CGATATCA,0.1
16,GCCGGTGA,-0.0361
17,AATCGCCG,-0.0476
18,CACCGTCC,-0.0798
19,CCGACACA,0.0282
20,ATTATATA,0.113
21,AGGCCGCA,-0.0941
22,CTGCACAG,-0.0527
